Measurements: publication PMC10302582, “Unveiling the Potential of BenzylethyleneAryl–Urea Scaffolds for the Design of New Onco Immunomodulating Agents” (Pharmaceuticals, 2023)

What was measured:
[1] = test system: HT-29 (colon adenocarcinoma); test: MTT cell proliferation assay, HT-29; type: cell-based, human; details: tumor-selectivity index
Description: (§1) After the supernatant was discarded, we solved the formazan crystal in 100 µL of DMSO. The absorbance was then registered at 550 nm using a plate lector. For all concentrations of any compound, cell viability was expressed as the percentage of the ratio between the mean absorbance of the treated cells and the mean absorbance of the untreated cells. Three to five experiments were performed to establish the IC50 values (i.e., concentration half inhibiting cell proliferation, we used GraphPad Prism 7 software).

[2] = test system: A-549 (pulmonary adenocarcinoma); test: MTT cell proliferation assay, A-549; type: cell-based, human; details: tumor-selectivity index
Description: as §1

SMILES | SI (HT-29) (IC50HEK293/IC50HT-29) [1] | SI (A-549) (IC50HEK293/A-549) [2]
Cc1c(COc2ccc(CN3CCCCC3C(=O)O)cc2Br)cccc1-c1ccccc1 (centres unmarked) [BMS-8, reference compound] | 3 | 10
COc1ccc(CCCc2cccc(NC(=O)Nc3cccc(F)c3)c2)cc1 [C.4] | <0.2 | <0.2
COc1ccc(CCCc2cccc(NC(=O)Nc3ccccc3Br)c2)cc1 [C.11] | 1.8 | 1.3
COc1ccc(CCCc2cccc(NC(=O)Nc3cccc(Br)c3)c2)cc1 [C.10] | 0.8 | 1.1
COc1ccc(CCCc2cccc(NC(=O)Nc3ccccc3F)c2)cc1 [C.5] | – | 0.8
COc1ccc(CCCc2cccc(NC(=O)Nc3cccc(OC)c3)c2)cc1 [C.13] | 1.9 | 0.8
COc1ccc(CCCc2cccc(NC(=O)Nc3ccccc3OC)c2)cc1 [C.14] | No effect | No effect
COc1ccc(CCCc2cccc(NC(=O)Nc3cccc(Cl)c3)c2)cc1 [C.7] | 1.0 | –
COc1ccc(CCCc2cccc(NC(=O)Nc3ccc(Br)cc3)c2)cc1 [C.9] | 1.1 | –
COc1ccc(CCCc2cccc(NC(=O)Oc3ccccc3)c2)cc1 [C.1] | No effect | No effect
COc1ccc(CCCc2cccc(NC(=O)Nc3ccccc3Cl)c2)cc1 [C.8] | 0.8 | <0.4
COc1ccc(CCCc2cccc(NC(=O)Nc3ccc(Cl)cc3)c2)cc1 [C.6] | 1.0 | 0.2
COc1ccc(CCCc2cccc(NC(=O)Nc3ccc(F)cc3)c2)cc1 [C.3] | No effect | No effect
COc1ccc(CCCc2cccc(NC(=O)Nc3ccc(OC)cc3)c2)cc1 [C.12] | No effect | 83
COc1ccc(CCCc2cccc(NC(=O)Nc3ccccc3)c2)cc1 [C.2] | 0.5 | –
